Percent effect of library compounds

Protein sequences, listed by entry. Tags and fused reporters are not part of them.
UniProt P9WPC5, whole entry: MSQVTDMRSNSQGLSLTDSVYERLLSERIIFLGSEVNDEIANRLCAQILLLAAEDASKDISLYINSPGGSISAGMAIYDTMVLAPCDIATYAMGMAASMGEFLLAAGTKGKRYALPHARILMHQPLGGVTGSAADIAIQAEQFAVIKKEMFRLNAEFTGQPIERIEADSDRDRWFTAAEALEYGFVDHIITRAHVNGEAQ
UniProt P9WPC3, whole entry partner: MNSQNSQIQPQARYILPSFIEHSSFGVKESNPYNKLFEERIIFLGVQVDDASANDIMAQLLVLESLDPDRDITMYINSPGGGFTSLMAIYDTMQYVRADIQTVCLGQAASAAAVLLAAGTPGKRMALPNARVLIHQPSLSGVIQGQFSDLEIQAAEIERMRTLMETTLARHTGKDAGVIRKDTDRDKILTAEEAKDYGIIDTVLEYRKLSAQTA

Source: ChEMBL document CHEMBL3988442, “University of Dundee, Small-Polar-MMV Screening Library” (2021).

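Protease assay of ClpP1P2, read by the AMC dye that it sets free. Target: ClpP1P2, Mycobacterium tuberculosis (UniProt P9WPC5 and UniProt P9WPC3). Concentration: 50 µM. Higher reads as stronger inhibition, judged from the few compounds that gave an IC50. Most other retested compounds had strongly negative values. About 69,000 compounds were tested under these conditions; 0.015% (about 10) showed 50% or more at least once.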

Values are the deposited “Percent Effect”, in %.
The record does not define 0% and 100%; most values in the screen are far below 50% and negative numbers occur (in some assays of this library far below -100).
Compounds were drawn at random from those tested, without regard to their results.

SMILES	effect
CO[C@@H]1CC[C@@H](NC(=O)CCc2ccc(Cl)cc2)[C@H]1O	-8.263%
Cc1cc(-c2nn(C)c(Cl)c2CN2CC[C@H](CO)[C@@H](O)C2)no1	6.348%
CCOCCC(=O)NCC(C)c1ccsc1 (stereo not drawn)	-12.98%
CCC[C@H]1CN(S(C)(=O)=O)C[C@@H]1NC(=O)c1ccc(COC)cc1	-11.81%
CCS(=O)(=O)NCCNCc1cc(F)ccc1Br	-3.89%
Cc1cc(C)n(C2CCN(Cc3c(-c4cc(C)on4)nn(C)c3Cl)C2)n1 (stereo not drawn)	9.463%
O=C(NC1CC1)N1C[C@H]2CN(Cc3cccc(F)c3)C(=O)[C@H]2C1	14.66%
COc1cc2nc(NCc3ccc(C)nc3)nc(N)c2cc1OC	11.06%
Cc1nc(CN2CCN(C(=O)C(C(C)C)n3cncn3)CC2)cs1 (stereo not drawn)	-23.09%
CC(C)S(=O)(=O)N1CCCC(c2cccc(C(=O)O)c2)C1 (stereo not drawn)	1.748%
Cc1nc(NCC2CC2)nc2c1COCC21CCN(C(=O)C(C)(C)C)C1 (stereo not drawn)	97.51%
Nc1no[n+]([O-])c1C(=O)NCc1ccccn1	1.412%
CCS(=O)(=O)N1CCc2ccc(NC(=O)Nc3cccc(SC)c3)cc21	-8.173%
O=C(C1CCOCC1)N1C[C@@H]2[C@@H](C1)OCC(=O)N2CC1CC1	-3.457%
CCc1noc(CCCC(=O)Nc2cc(C(F)(F)F)c[nH]c2=O)n1	0.3943%
CCOc1ncnc2c1CCN(S(=O)(=O)C1CC1)CC2	-0.9245%
CNC(=O)c1cc2c(nc1N(C)C)CCN(S(=O)(=O)C1CC1)CC2	-8.145%
N#Cc1c(SCCN2CCCCC2)sc2c(O)cc(O)nc12	25.81%
COc1ccc2c(c1)OCC(Cc1ccc(C)nc1N)C2 (stereo not drawn)	-7.337%
CC(C)CC(CC(C)C)NC(=O)c1ccn(C)c(=O)c1	0.3992%
Fc1ccc(-c2noc(C3COCCO3)n2)cc1F (stereo not drawn)	-2.255%
CC1CCCCN1c1nc2c(c(=O)[nH]1)CCN(Cc1cccnc1)C2 (stereo not drawn)	-6.736%
Cc1cc(N(C)CCN(C)C2CCCC2)n2nc(C)cc2n1	-3.248%
CC(C)c1n[nH]c(C2CN(C(=O)c3cccc4cn[nH]c34)CCO2)n1 (stereo not drawn)	-5.504%
c1cncc(OCc2noc3c2CN(Cc2cccs2)CC3)c1	5.567%
CCN(C)c1ccc(C(=O)NCCCc2ccccn2)cn1	-12.11%
CCOC(=O)c1sc(NC(=O)CCCC(=O)O)c(C#N)c1C	-13.73%
CC(C)N1CCCC(CNC(=O)Cc2csc(-c3cccnc3)n2)C1 (stereo not drawn)	-12%
COc1cc(Cl)c(NCc2c(C)noc2C)cc1OC	12.53%
O=S(=O)(C1CC1)N1CC[C@]2(C[C@H](OCC3CCOCC3)CO2)C1	-1.23%
Cc1ccn2c(=O)cc(CSCC(=O)Nc3nnc(C(C)C)s3)nc2c1	-1.264%
Cn1nnnc1SC1CCCN(c2cccc(F)c2)C1=O (stereo not drawn)	-6.154%
Cc1nc(COCC2CN(C(N)=O)Cc3nccn3C2)cs1 (stereo not drawn)	-12.39%
O=C(N[C@@H]1CCNC[C@H]1O)c1cc(F)cc(Cl)c1	-13.57%
CN(C)C(=O)C1CN(c2ccncn2)CCN(C2CCOCC2)C1 (stereo not drawn)	-18.63%
CC(=O)NCCc1cn(-c2cc(F)ccc2C)cn1	-11.95%
CCc1nc(CN(C)C2CCN(CCc3ccncc3)C2)no1 (stereo not drawn)	-15.11%
COc1c(C2CCCN2C(=O)CCNc2ncccn2)c(C)nn1C (stereo not drawn)	-3.344%
O=C(CN1CCC(c2nnc(C(F)(F)F)o2)CC1)Nc1cccc(Cl)c1	-3.249%
CN(C)C(=O)c1cn2cc(-c3ccccc3Cl)n(CC3CC3)c(=O)c2n1	-6.587%
CCc1nc(CN2CCCN(C(=O)C3CCOC3)CC2)cs1 (stereo not drawn)	0.8479%
CC(C)OC(=O)N1C[C@H]2CC[C@@H]1CN(Cc1cccnc1)C2	-7.922%
Cc1ccccc1Cn1nnc2cc3c(cc2c1=O)OCCO3	-21.95%
Cc1occc1C(=O)N1CC(C(=O)N2CCOCC2)C2(CCOCC2)C1 (stereo not drawn)	-2.521%
CCn1c(-c2ccccc2)nn(CC(=O)NCCc2ccc(C)s2)c1=O	-11.76%
Cc1noc(C)c1-c1nc(NCCN(C)C)ncc1-c1cnccn1	-1.434%
COc1ccc(F)c(CN2CCCC(O)(CNCC(C)(C)C)C2=O)c1 (stereo not drawn)	1.752%
CCc1c(C(=O)NC2CCS(=O)(=O)C2)cnn1-c1ccc(C)cc1 (stereo not drawn)	-21.43%
Cc1cc(C)n(-c2nc(C(=O)NCCS(=O)(=O)N3CCCCC3)cs2)n1	-1.853%
COc1ccccc1NC(=O)NCCCC(=O)Nc1cn[nH]c1	3.245%
Cc1ccc(C)c(C(=O)Nc2ccc(OC3CCN(C)CC3)cc2)c1	-6.127%
Cc1ccccc1CS(=O)(=O)CC(=O)N(C)Cc1ccccc1	-3.084%
COCCN(CCC#N)S(=O)(=O)c1cc(F)ccc1F	-1.888%
CCc1noc(C(C)N2CCN(c3ccc(C#N)cn3)CC2)n1 (stereo not drawn)	3.265%
O=C(c1ccc(Cl)cc1)N1CCc2nc(C(=O)N3CCCC3)sc2CC1	-8.305%
CC(=O)Nc1ccc2nc(CN(C)Cc3noc(C)n3)ccc2c1	-79.41%
CCn1cc(CN2CCCn3nc(CNC(=O)N(C)C)cc3C2)cn1	-1.421%
Cc1ccc(C(=O)NCc2ccnc(C3CCCOC3)n2)s1 (stereo not drawn)	-10.22%
Cc1nnc2n1CCN(Cc1csc(-c3ncccn3)n1)C2	17.35%
C=C(C)COc1ccccc1C(=O)N(C)C(C)c1c(C)n[nH]c1C (stereo not drawn)	-9.935%
O=C(c1cnc(-c2ncccn2)s1)N1CCCC1Cn1cccn1 (stereo not drawn)	-2.406%
O=C(CCc1cc(Br)cs1)NCCCn1ccnc1	-3.328%
CNC(=O)c1ccc(S(=O)(=O)NCc2cccnc2N(C)C)cc1	-12.68%

Some entries from above, unchanged:

SMILES	effect
CC(C)S(=O)(=O)N1CCCC(c2cccc(C(=O)O)c2)C1 (stereo not drawn)	1.748%
Cc1cc(C)n(-c2nc(C(=O)NCCS(=O)(=O)N3CCCCC3)cs2)n1	-1.853%
CCC[C@H]1CN(S(C)(=O)=O)C[C@@H]1NC(=O)c1ccc(COC)cc1	-11.81%
Cc1noc(C)c1-c1nc(NCCN(C)C)ncc1-c1cnccn1	-1.434%
c1cncc(OCc2noc3c2CN(Cc2cccs2)CC3)c1	5.567%
COc1c(C2CCCN2C(=O)CCNc2ncccn2)c(C)nn1C (stereo not drawn)	-3.344%
CO[C@@H]1CC[C@@H](NC(=O)CCc2ccc(Cl)cc2)[C@H]1O	-8.263%